PubChem BioAssay AID504444 (National Center for Advancing Translational Sciences (NCATS), 2011)
Screen size: about 360,000 compounds; about 7,500 (2.1%) were called active. This list was built around the results that the source calls inconclusive (neither active nor inactive); the mix of calls is not that of the screen. Calls follow the shape of the dose curve; as a rule, active = well fitted inhibition curve with a large enough effect; inconclusive = small, poorly fitted or top-dose-only effect, or effect the other way; inactive = flat fitted curve, though single readings scatter. Potencies of inconclusive entries are doubtful fits and often do not repeat.

assay: Nrf2 qHTS screen for inhibitors; conditions: A549 ARE-Fluc reporter, luciferase luminescence, 18-24 h; series mostly up to 46 µM; also: nearly all actives have a fitted effect of over 60% in size
How it was run: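 In this cell-based qHTS, ARE-driven firefly luciferase in A549 cells reports Nrf2 activity; the luminescent signal after BugLite lysis is the measured value, with a prior CellTiter-Fluor read for cell health.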
Potency is read from the fitted curve at half-maximal effect.

Row | SMILES | Potency
1 | C=CCc1ccc(OCCOc2cccc3ccc(C)nc23)c(OC)c1 | inconclusive: 29.1 µM [falling, partial curve, poor fit]
2 | CCOc1cc(CNCCO)cc(Br)c1OCc1ccccc1Cl | inconclusive: 16.4 µM [falling, partial curve, poor fit]
3 | Cc1nc2c(n1C1CCCCC1)C(=O)c1ccccc1C2=O | inconclusive: 2.91 µM [activator, partial curve]
4 | O=c1cc(-c2ccc(O)cc2)oc2cc(O)c(C3OC(CO)C(O)C(O)C3O)c(O)c12 (configuration not stated) | inconclusive: 29.1 µM [falling, partial curve, poor fit]
5 | O=C(COc1nc2ccccc2nc1N1CCOCC1)Nc1cccc(S(=O)(=O)N2CCCCC2)c1 | inconclusive: 20.6 µM [falling, single point]
6 | Cc1ccc(CNS(=O)(=O)c2ccc(-n3cnnn3)c(C)c2)cc1 | inconclusive: 10.3 µM [falling, partial curve, poor fit]
7 | CCOC(=O)c1[nH]c2cc3c(cc2c1NC(=O)CN1CCC2(CC1)OCCO2)OCO3 | inactive
8 | CCCOC(=O)CSc1nc(N2CCOCC2)c2c(c1C#N)CC(C)(C)OC2 | inconclusive: 0.0411 µM [falling, full curve]
9 | CCOC(=O)c1ccc(CNc2ncnc3nc[nH]c23)cc1 | inconclusive: 23.1 µM [falling, partial curve, poor fit]
10 | COc1ccc(C2CC(c3ccc(Br)cc3)=NN2C(=O)c2cccnc2)cc1 (configuration not stated) | inconclusive: 23.1 µM [falling, single point]
11 | Brc1ccc(OCCn2ccnc2)cc1 | inconclusive: 14.6 µM [falling, single point]
12 | O=[N+]([O-])c1cc(Br)c(OCc2nnc(-c3ccccc3)o2)c(Br)c1 | inconclusive: 25.9 µM [activator, single point]
13 | O=S(=O)(c1ccc(Nc2ccc(-c3ccc4c(c3)OCCO4)nn2)cc1)N1CCCC1 | inconclusive: 32.6 µM [falling, single point]
14 | COCCN1C(=O)c2ccccc2C(C(=O)N2CCN(c3ccccc3)CC2)C1c1ccc(F)cc1 (configuration not stated) | inconclusive: 1.84 µM [falling, partial curve, poor fit]
15 | COc1ccc2cc(/C=C3\SC(=S)NC3=O)c(N3CCOCC3)nc2c1 | active: 20.6 µM
16 | CC(=O)Nn1c(-c2ccccc2)cc2ccccc21 | inactive
17 | Cc1nnn(C23CC4CC(CC(CC(=O)Nc5ccc(C)c(Cl)c5)(C4)C2)C3)n1 | inconclusive: 16.4 µM [falling, single point]
18 | CCOC(=O)c1c(-c2ccc(OC)cc2)csc1NC(=O)CSc1ncnc2sccc12 | active: 14.6 µM
19 | CCN(CC)S(=O)(=O)c1ccc(N2CCCCC2)c(NC(=O)C2=COCCO2)c1 | inconclusive: 2.06 µM [falling, single point]
20 | COc1ccc(-c2csc(N3N=C(C)C(C)C3=O)n2)cc1 (configuration not stated) | inconclusive: 1.46 µM [activator, full curve]
21 | COc1ccc(Cl)cc1NC(=O)c1c(NCc2sccc2C)sc2c1CCCC2 | inactive
22 | O=C(NCc1ccccc1Cl)c1cnc2sc(N3CCCCC3)nn2c1=O | inconclusive: 6.51 µM [falling, single point]
23 | CSc1nc2ccc(NS(=O)(=O)c3ccc(Br)s3)cc2s1 | inconclusive: 29.1 µM [falling, single point]

Row | SMILES | Potency
24 | COc1ccc(Nc2ncc3c(n2)CC(c2ccccc2)CC3=O)cc1 (configuration not stated) | inconclusive: 9.2 µM [falling, partial curve, poor fit]
25 | Cc1cnc(CN(C)Cc2c(C(=O)N3CCCCCCC3)nc3ccc(Cl)cn23)[nH]1 | inactive
26 | Cc1ccc(C2NC(=O)c3ccccc3N2)s1 (configuration not stated) | inconclusive: 11.6 µM [activator, partial curve, poor fit]
27 | O=C(Nc1cc(Cl)cc(Cl)c1)C1CC(=O)N(C2CCCC2)C1 (configuration not stated) | inactive
28 | Cc1ccc(C2NC(=O)NC3=C2CCc2ccccc23)cc1 (configuration not stated) | inactive
29 | COc1ccc(COC(=O)N/N=C(\C)CC(=O)Nc2ccc(Cl)cn2)cc1 | inconclusive: 16.4 µM [activator, partial curve, poor fit]
30 | CCn1c(=O)n(CC)c2cc(N3CCCCC3)c(NC(=O)Nc3ccccc3C(F)(F)F)cc21 | inconclusive: 9.2 µM [falling, partial curve]
31 | Cc1cc(C)n2nc(SCC(=O)Nc3cccc(C(F)(F)F)c3)nc2n1 | inconclusive: 29.1 µM [falling, single point]
32 | COc1cccc(NS(=O)(=O)c2cc3c4c(c2)CCC(=O)N4CCC3)c1 | inconclusive: 11.6 µM [falling, partial curve]
33 | COc1ccc(C(CC(=O)NCc2ccccc2)N2Cc3ccccc3C2=O)cc1 (configuration not stated) | inconclusive: 20.6 µM [activator, single point]
34 | Cc1[nH]c2ccccc2c1SCc1nnc(SCc2ccc(Cl)cc2)n1C | inconclusive: 29.1 µM [falling, single point]
35 | Cc1ccc(S(=O)(=O)Nc2nc3ccccc3nc2NCc2ccco2)cc1 | inconclusive: 20.6 µM [activator, partial curve]
36 | O=C(OCC(=O)N1CCN(C(=O)c2ccco2)CC1)c1cc(-c2cccc(Br)c2)nc2ccccc12 | inconclusive: 29.1 µM [falling, single point]
37 | CCC(Oc1ccc(F)cc1)C(=O)Nc1nc(-c2ccc(F)cc2)ns1 (configuration not stated) | active: 16.4 µM
38 | CCc1ccccc1NC(=O)c1cnc2sc(N3CCOCC3)nn2c1=O | inconclusive: 29.1 µM [activator, single point]
39 | CC1Cc2cc(S(=O)(=O)N3CCN(c4ccc(Cl)cc4)CC3)ccc2N1C(=O)C1CC1 (configuration not stated) | active: 7.31 µM
40 | COc1cccc(NC(=O)CN(C)C(=O)COc2ccc3ccccc3c2)c1 | inactive
41 | OC(CNC1Cc2ccccc2C1)COc1ccc(Cl)cc1 (configuration not stated) | inconclusive: 0.92 µM [activator, partial curve]
42 | O=C(O)CSc1sc(=S)sc1SCC(=O)O | inconclusive: 29.1 µM [falling, single point]
43 | CN(C)S(=O)(=O)c1cccc(NC(=O)CSc2nc3ccccc3n2-c2ccccc2)c1 | active: 18.4 µM
44 | CCOC(=O)C(CC)(CC)C(=O)/C=C/c1cccc(Br)c1 | inactive
45 | Cc1cc2ccccc2n1CCNC(=O)C(C)(C)C | inactive
46 | COc1ccc(N2CCN(C(=O)c3ccc(Cl)c(S(=O)(=O)N4CCOCC4)c3)CC2)cc1 | inconclusive: 25.9 µM [falling, single point]

Random excerpt: four entries already listed
Row | SMILES | Potency
23 | CSc1nc2ccc(NS(=O)(=O)c3ccc(Br)s3)cc2s1 | inconclusive: 29.1 µM [falling, single point]
2 | CCOc1cc(CNCCO)cc(Br)c1OCc1ccccc1Cl | inconclusive: 16.4 µM [falling, partial curve, poor fit]
44 | CCOC(=O)C(CC)(CC)C(=O)/C=C/c1cccc(Br)c1 | inactive
33 | COc1ccc(C(CC(=O)NCc2ccccc2)N2Cc3ccccc3C2=O)cc1 (configuration not stated) | inconclusive: 20.6 µM [activator, single point]

Further entries.

Row | SMILES | Potency
47 | NS(=O)(=O)c1ccc(NC(=O)c2ccc(CNS(=O)(=O)c3cc(C(F)(F)F)ccc3Cl)cc2)cc1 | inconclusive: 18.4 µM [falling, single point]
48 | CCOc1cc(NC(=S)NCCCN2CCOCC2)c(OCC)cc1NC(=O)c1ccc(OC)cc1 | inconclusive: 23.1 µM [falling, partial curve, poor fit]
49 | CCCCN(Cc1cc2cc(OC)ccc2[nH]c1=O)C(=O)c1ccccn1 | inconclusive: 20.6 µM [activator, single point]
50 | Nc1ccc2c(c1)C(O)c1ccc(Cl)cc1-2 (configuration not stated) | inconclusive: 9.2 µM [falling, partial curve]
51 | O=C(Oc1cccc2ccccc12)c1ccco1 | inactive
52 | Cc1ccc(/C=N/N2CCN(c3ccccn3)CC2)cc1 | inconclusive: 5.17 µM [activator, partial curve, poor fit]
53 | O=[N+]([O-])c1ccc(N2CCN(Cc3ccc4c(c3)OCO4)CC2)nc1 | inconclusive: 20.6 µM [falling, single point]
54 | Cc1ccc(C)c(-n2cc[nH]c2=S)c1 | inactive
55 | N#Cc1c(N)nc2c(c1-c1ccc3c(c1)OCO3)CCc1ccccc1-2 | inconclusive: 20.6 µM [falling, single point]
56 | CCOc1ccc(-c2[nH]nc3c2C(c2cccnc2)C(C#N)=C(N)O3)cc1 (configuration not stated) | inconclusive: 0.82 µM [activator, full curve, poor fit]
57 | COc1ccc2nc(NC(=O)c3cc(C)oc3C)sc2c1 | inconclusive: 2.91 µM [activator, full curve, poor fit]
58 | O=C1CCN(CC2CCCCC2)C=C1C(=O)c1ccccc1 | inconclusive: 3.66 µM [falling, partial curve, poor fit]
59 | O=C(COC(=O)c1ccc[nH]c1=O)Nc1ccc(S(=O)(=O)N2CCCC2)cc1 | inactive
60 | O=C(Cc1ccc(F)cc1)Nc1cccc(-c2ccc3nncn3n2)c1 | inconclusive: 18.4 µM [falling, single point]
61 | Cc1cc(N2CCOCC2)cc(C)[n+]1[O-] | inconclusive: 6.51 µM [activator, single point]
62 | COc1ccc2nc(SCC(=O)N3CCNC3=O)[nH]c2c1 | inconclusive: 1.3 µM [activator, full curve]
63 | COC(=O)Cn1cc(C(=O)C(C)(C)C)c2ccccc21 | inconclusive: 29.1 µM [falling, single point]
64 | Cc1cc(C)cc(NC(=O)c2ccc(CNc3c(N4CCOCC4)c(=O)c3=O)cc2)c1 | inconclusive: 1.84 µM [falling, partial curve, poor fit]
65 | COc1cc(/C=N/NC(=O)c2ccoc2C)ccc1OCCN1CCCCC1 | inactive
66 | COc1cc(NS(=O)(=O)c2cccc([N+](=O)[O-])c2)c2ncccc2c1 | inconclusive: 6.51 µM [falling, single point]
67 | O=C(O)CCn1cc(/C=C/C(=O)c2ccc(Cl)cc2)c(-c2ccc(Br)cc2)n1 | inconclusive: 25.9 µM [falling, single point]
